Data from PMC11183095.
Numbering of substitutions follows the chain as printed. No constants are given. Whether binding was seen depends on the method and setting. In cells and extracts the contact can be indirect. Some binding calls cover weakened binding; strength is not graded here. For part of these data: Sequences can lack the tags named with a protein.

Amino acid sequences for entries named in this document (tags omitted).
UniProt P14618: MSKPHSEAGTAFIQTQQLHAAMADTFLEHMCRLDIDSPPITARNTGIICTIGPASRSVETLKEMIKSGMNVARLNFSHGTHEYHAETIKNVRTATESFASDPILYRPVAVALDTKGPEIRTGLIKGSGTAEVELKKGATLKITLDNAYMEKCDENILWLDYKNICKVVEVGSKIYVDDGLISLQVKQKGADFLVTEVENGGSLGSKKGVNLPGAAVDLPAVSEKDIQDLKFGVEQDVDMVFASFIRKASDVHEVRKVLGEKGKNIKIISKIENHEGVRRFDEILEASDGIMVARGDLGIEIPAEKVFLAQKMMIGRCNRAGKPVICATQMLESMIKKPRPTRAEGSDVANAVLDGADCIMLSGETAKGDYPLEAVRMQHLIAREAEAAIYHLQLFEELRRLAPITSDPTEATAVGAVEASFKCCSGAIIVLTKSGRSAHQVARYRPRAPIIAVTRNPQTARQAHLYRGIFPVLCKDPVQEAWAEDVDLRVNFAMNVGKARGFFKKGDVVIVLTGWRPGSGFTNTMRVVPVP

Columns and labels:
[1] = molecular target: Phosphoglycerate mutase 1 (PGAM1), endogenous (human (endogenous in A549)) (UniProt P18669); assay: condition: only cells treated with TEPP46 (50 μM, 24 h) to stabilise the PKM2 tetramer; co-IP; anti-PGAM1 immunoprecipitation from A549 treated with TEPP46 (50 μM, 24 h) to stabilise the PKM2 tetramer, western blot
[2] = molecular target: Phosphoglycerate mutase 1 (PGAM1), endogenous (human (endogenous in A549)) (UniProt P18669); assay: co-IP; anti-PGAM1 immunoprecipitation from whole-cell lysates of A549 (also H1299, MCF-7, MDA-MB-231, AGS, Jurkat tumour cells; with or without EGF), western blot; IgG as negative control
[3] = molecular target: Flag-PGAM1 wild type (human) (UniProt P18669); assay: co-IP; Flag-PGAM1 immunoprecipitate from A549 held on anti-Flag agarose beads and treated with PTP1B (1 μg/μL) for 30 min, then eluted, western blot
[4] = molecular target: T1, Flag-PGAM1 Y142E (human) (UniProt P18669); assay: co-IP; anti-Flag immunoprecipitation from A549 transfected with Flag-PGAM1 or its mutants for 48 h, western blot for PKM2; with or without PKM2 or HA-Src overexpression, EGF, FGF1 or PDGFA
T1 sequence: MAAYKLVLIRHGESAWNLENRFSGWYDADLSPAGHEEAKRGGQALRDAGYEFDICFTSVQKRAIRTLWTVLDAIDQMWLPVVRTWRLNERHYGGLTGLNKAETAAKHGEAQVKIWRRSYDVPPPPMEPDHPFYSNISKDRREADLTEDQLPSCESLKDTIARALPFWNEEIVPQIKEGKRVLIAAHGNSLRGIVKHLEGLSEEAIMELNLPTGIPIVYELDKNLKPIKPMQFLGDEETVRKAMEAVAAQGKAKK

[5] = molecular target: Flag-PGAM1 wild type (human) (UniProt P18669); assay: as above
[6] = molecular target: T2, Flag-PGAM1 Y133F (human) (UniProt P18669); assay: as above
T2 sequence: T1 sequence with Y133F, E142Y

[7] = molecular target: T3, Flag-PGAM1 Y50F (human) (UniProt P18669); assay: as above
T3 sequence: T1 sequence with Y50F, E142Y

[8] = molecular target: T4, Flag-PGAM1 Y142F (human) (UniProt P18669); assay: as above
T4 sequence: T1 sequence with E142F

[9] = molecular target: T5, Flag-PGAM1 Y133E (human) (UniProt P18669); assay: as above
T5 sequence: T1 sequence with Y133E, E142Y

[10] = molecular target: Phosphoglycerate mutase 1 (PGAM1), endogenous (human (endogenous in A549)) (UniProt P18669); assay: co-IP; anti-PGAM1 immunoprecipitation from whole-cell lysates of untransformed cells (HBE-2, MCF-10A, GES-1, activated T and naive T cells), western blot
[11] = molecular target: Flag-PGAM1 wild type (human) (UniProt P18669); assay: condition: only cells treated with Afatinib (1 μM, 3 h) before EGF; co-IP; anti-Flag immunoprecipitation from Flag-PGAM1-transfected, serum-starved A549 treated with Afatinib (1 μM, 3 h) before EGF (100 ng/mL, 30 min), western blot
[12] = molecular target: Phosphoglycerate mutase 1 (PGAM1), endogenous (human (endogenous in A549)) (UniProt P18669); assay: co-IP; anti-PGAM1 immunoprecipitation from lung tumour tissues and adjacent normal tissues of ten patients, western blot

Measured: binding

Pyruvate kinase M2 (PKM2), endogenous (from UniProt P14618 1-531) (enzyme)
binds weakly: [3] | [10]
no binding: [1] | [11]
binds: all other assays above
